# Measurements reported in PubChem BioAssay AID1224830 (NIAID, 2016).
# Assay: 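Genes whose knock-down alters the TNF-alpha reporter response to LPS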 (primary screen)
# Cell system: human THP-1 monocytic leukaemia cells, TNF dual-luciferase reporter clone, PMA-differentiated to macrophage-like cells
# Reagents: siRNA pool against human genes, 50 nM
# Timing: LPS for 4 h, given about 3 days after siRNA transfection
# Conditions: bacterial LPS (TLR4 ligand), 10 ng/ml
# Measured: 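TNF firefly reporter luminescence divided by renilla, normalised to the plate median, then turned into a robust z-score for each replicate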
# Direction: TNF reporter robust z-score: higher = stronger TNF reporter response to LPS
# Active means: 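Each well counts as active if its z-score is over 2.8 or under -1.5; controls are left without a call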
# Here is one part, drawn at random, of about 18,000 deposited reagents. Over the whole deposit, about 2,900 (16%) got an active call. 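Calls are made per well; low scores hint the gene aids the LPS response, high scores that it dampens it.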 Repeated entries: four replicate wells of each siRNA pool. Reagent sequences are not shown.
gene,TNF reporter robust z-score,call
MTF2,0.15,inactive
MTF2,-1.21,inactive
MTF2,-1.18,inactive
MTF2,-0.57,inactive
BRIP1,0.41,inactive
BRIP1,0.73,inactive
BRIP1,-0.22,inactive
BRIP1,0.79,inactive
GRB7,0.53,inactive
GRB7,1.2,inactive
GRB7,0.71,inactive
GRB7,1.05,inactive
ARID4A,0.49,inactive
ARID4A,1.16,inactive
ARID4A,0.19,inactive
ARID4A,0.38,inactive
GNB4,0.74,inactive
GNB4,-0.32,inactive
GNB4,-0.4,inactive
GNB4,-0.82,inactive
C8orf74,-1.91,active
C8orf74,-1.83,active
C8orf74,-2.06,active
C8orf74,-1.97,active
IL1R1,-0.86,inactive
IL1R1,-0.14,inactive
IL1R1,0.12,inactive
IL1R1,0.48,inactive
ALOX15B,2.12,inactive
ALOX15B,2.56,inactive
ALOX15B,1.62,inactive
ALOX15B,3.71,active
FBXO22,-1.4,inactive
FBXO22,2.73,inactive
FBXO22,-2.01,active
FBXO22,-0.08,inactive
CD200R1L,-0.52,inactive
CD200R1L,0.41,inactive
CD200R1L,-0.05,inactive
CD200R1L,-0.19,inactive
GLUD1,-0.11,inactive
GLUD1,0.41,inactive
GLUD1,-0.27,inactive
GLUD1,0.8,inactive
CREB3L1,-1.25,inactive
CREB3L1,-0.73,inactive
CREB3L1,-1.39,inactive
CREB3L1,-1.11,inactive
MYO18B,1.67,inactive
MYO18B,1.02,inactive
MYO18B,1.3,inactive
MYO18B,0.52,inactive
TMEM101,-0.44,inactive
TMEM101,-0.82,inactive
TMEM101,-0.93,inactive
TMEM101,-1.42,inactive
FCER1G,-0.66,inactive
FCER1G,0.79,inactive
FCER1G,-0.33,inactive
FCER1G,0.75,inactive

18 successive entries from above, for reference:
gene,TNF reporter robust z-score,call
ARID4A,0.49,inactive
ARID4A,1.16,inactive
ARID4A,0.19,inactive
ARID4A,0.38,inactive
GNB4,0.74,inactive
GNB4,-0.32,inactive
GNB4,-0.4,inactive
GNB4,-0.82,inactive
C8orf74,-1.91,active
C8orf74,-1.83,active
C8orf74,-2.06,active
C8orf74,-1.97,active
IL1R1,-0.86,inactive
IL1R1,-0.14,inactive
IL1R1,0.12,inactive
IL1R1,0.48,inactive
ALOX15B,2.12,inactive
ALOX15B,2.56,inactive

Further reagents:
gene,TNF reporter robust z-score,call
MPP3,1.32,inactive
MPP3,0.89,inactive
MPP3,1.3,inactive
MPP3,3.03,active
UBE2E1,-0.56,inactive
UBE2E1,0.01,inactive
UBE2E1,-0.84,inactive
UBE2E1,-0.16,inactive
MAPKAPK2,0.24,inactive
MAPKAPK2,1.3,inactive
MAPKAPK2,-0.33,inactive
MAPKAPK2,-0.62,inactive
TAF1D,-0.61,inactive
TAF1D,-0.42,inactive
TAF1D,0.06,inactive
TAF1D,-0.11,inactive
PBK,-1.06,inactive
PBK,0.77,inactive
PBK,-0.18,inactive
PBK,0.31,inactive
FAM170A,0.98,inactive
FAM170A,0.12,inactive
FAM170A,0.07,inactive
FAM170A,0.04,inactive
DENND4A,7.11,active
DENND4A,0.68,inactive
DENND4A,1.61,inactive
DENND4A,2.15,inactive
YTHDF3,0.01,inactive
YTHDF3,1.23,inactive
YTHDF3,0.15,inactive
YTHDF3,1.42,inactive
PCDHB2,-0.25,inactive
PCDHB2,1.06,inactive
PCDHB2,0.85,inactive
PCDHB2,0.97,inactive
IL23R,-1.05,inactive
IL23R,-0.49,inactive
IL23R,-0.47,inactive
IL23R,-0.33,inactive
ARID3C,0.99,inactive
ARID3C,2.28,inactive
ARID3C,1.23,inactive
ARID3C,-0.43,inactive
CRTAP,-1.32,inactive
CRTAP,-0.83,inactive
CRTAP,-1.03,inactive
CRTAP,-0.07,inactive
LRIG1,-0.78,inactive
LRIG1,-0.67,inactive
LRIG1,-0.53,inactive
LRIG1,-0.87,inactive
